Assay results reported in PubChem BioAssay AID248 (DTP/NCI, 2004).
The list does not hold the whole screen: it gathers tests that were run many times, whatever their T/C, doses with no T/C, and many T/C values between a quarter and a half above the control. Other doses and runs of a compound stand elsewhere. T/C gives the treated animals as a percentage of the vehicle group. Some doses have a count of surviving animals in place of a T/C: the source files T/C as zero there, which appears to mark a toxic dose or a test without result, not a measured value. Some doses without a T/C left all or most animals alive at the check, yet need not have been tolerated: the source hardly ever lists a survival T/C far under the control, and the zero likely stands for such cases as well. Survivors were counted at the toxicity check, usually on the fifth day, unless a day is given; later deaths do not show. Schedule codes are those of the source, read here as Q, the interval in days (D) or hours (H), X, the number of doses. Some schedule codes hold Z or #, which are not explained here.

Test system: L1210 leukemia ip in BDF1 mice, survival T/C
Assay: NCI In Vivo Anticancer Drug Screen. Data for tumor model L1210 Leukemia (intraperitoneal) in B6D2F1 (BDF1) mice
Conditions: T/C endpoint: mean survival time, higher T/C = longer survival

For `CCCCCCCCCC(=O)N/N=C/c1ccccc1Cl`, the survivor count (dose: 100.0 mg/kg/injection, schedule: Q01DX009 (ip), vehicle: Klucel (hydroxypropylcellulose) (HPC)) was 3 of 6, the survivor count (dose: 200.0 mg/kg/injection, schedule: Q01DX009 (ip), vehicle: Klucel (hydroxypropylcellulose) (HPC)) was 1 of 6 and the survivor count (dose: 400.0 mg/kg/injection, schedule: Q01DX009 (ip), vehicle: Klucel (hydroxypropylcellulose) (HPC)) was 0 of 6.

With `O=S1OCCS1` (stereo not given) the survivor count (dose: 4.7 mg/kg/injection, schedule: Q01DX Z (sc), vehicle: saline) was 3 of 10, the survivor count (dose: 7.8 mg/kg/injection, schedule: Q01DX Z (sc), vehicle: saline) was 6 of 10 and the survivor count (dose: 21.6 mg/kg/injection, schedule: Q01DX Z (sc), vehicle: saline) was 5 of 10.

With `CC(C)(C)C1CCC(OS(C)(=O)=O)C(OS(C)(=O)=O)C1` (stereo not given) the survivor count (dose: 50.0 mg/kg/injection, schedule: Q04DX003 (ip), vehicle: Klucel (hydroxypropylcellulose) (HPC)) was 1 of 6, the survivor count (dose: 100.0 mg/kg/injection, schedule: Q04DX003 (ip), vehicle: Klucel (hydroxypropylcellulose) (HPC)) was 0 of 6 and the survivor count (dose: 200.0 mg/kg/injection, schedule: Q04DX003 (ip), vehicle: Klucel (hydroxypropylcellulose) (HPC)) was 0 of 6. The survivor count (dose: 400.0 mg/kg/injection, schedule: Q04DX003 (ip), vehicle: Klucel (hydroxypropylcellulose) (HPC)) was 0 of 6.

With `COc1ccc(-c2nnc(-c3ccc(OC)c(Cl)c3)nn2)cc1Cl` the survivor count (dose: 50.0 mg/kg/injection, schedule: Q01DX009 (ip), vehicle: saline with Tween-80) was 6 of 6.

For `Brc1csnn1`, the survivor count (dose: 400.0 mg/kg/injection, schedule: Q01DX001 (ip), vehicle: carboxymethylcellulose (CMC)) was 2 of 4.

`O=C(Nc1cccc(C(F)(F)F)c1)Nc1cccc2c1C(=O)c1ccccc1C2=O` was tested, and the survivor count (dose: 400.0 mg/kg/injection, schedule: Q01DX009 (ip), vehicle: saline with Tween-80) was 6 of 6.

With `CCCCN(C)CC#N` the survivor count (dose: 50.0 mg/kg/injection, schedule: Q04DX003 (ip), vehicle: saline with Tween-80) was 0 of 6.

For `CN=C(NC)c1ccc(NC(=NC)c2ccc(C(=NC)Nc3ccc(C(=NC)NC)cc3)cc2)cc1`, the survivor count (dose: 10.0 mg/kg/injection, schedule: Q01DX Z (ip), vehicle: saline) was 1 of 6, the survivor count (dose: 15.0 mg/kg/injection, schedule: Q01DX Z (ip), vehicle: saline) was 0 of 6 and the survivor count (dose: 22.0 mg/kg/injection, schedule: Q01DX Z (ip), vehicle: saline) was 0 of 6.

For `NC(CSS(=O)(=O)O)=NCc1ccccc1`, the survivor count (dose: 100.0 mg/kg/injection, schedule: Q04DX002 (ip), vehicle: Klucel (hydroxypropylcellulose) (HPC)) was 0 of 3, the survivor count (dose: 200.0 mg/kg/injection, schedule: Q04DX002 (ip), vehicle: Klucel (hydroxypropylcellulose) (HPC)) was 0 of 3 and the survivor count (dose: 400.0 mg/kg/injection, schedule: Q04DX002 (ip), vehicle: Klucel (hydroxypropylcellulose) (HPC)) was 0 of 3.
